# Paper doi:10.1101/2020.06.23.167247
# Results are given in words; binding and its absence hold for the method and conditions named. For some of these results: In cells and extracts the contact can be indirect. For some of these results: Binding calls can cover weak binding; strength is not graded here. Tags and fused reporters may be left off the sequences shown.
# T1: L-galactose dehydrogenase (L-GalDH), yeast two-hybrid fusions (Arabidopsis thaliana) (UniProt O81884)
# T1 sequence: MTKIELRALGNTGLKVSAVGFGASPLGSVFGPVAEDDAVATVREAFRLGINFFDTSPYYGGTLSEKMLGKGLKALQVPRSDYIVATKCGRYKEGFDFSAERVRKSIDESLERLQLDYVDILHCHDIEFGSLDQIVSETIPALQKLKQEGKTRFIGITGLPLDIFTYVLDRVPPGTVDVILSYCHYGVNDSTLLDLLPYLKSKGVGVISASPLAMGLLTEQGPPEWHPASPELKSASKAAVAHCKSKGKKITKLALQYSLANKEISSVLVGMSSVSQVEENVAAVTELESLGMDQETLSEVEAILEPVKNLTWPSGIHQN
# T2: L-galactose 1-phosphate phosphatase (VTC4), yeast two-hybrid fusions (Arabidopsis thaliana) (UniProt Q9M8S8)
# T2 sequence: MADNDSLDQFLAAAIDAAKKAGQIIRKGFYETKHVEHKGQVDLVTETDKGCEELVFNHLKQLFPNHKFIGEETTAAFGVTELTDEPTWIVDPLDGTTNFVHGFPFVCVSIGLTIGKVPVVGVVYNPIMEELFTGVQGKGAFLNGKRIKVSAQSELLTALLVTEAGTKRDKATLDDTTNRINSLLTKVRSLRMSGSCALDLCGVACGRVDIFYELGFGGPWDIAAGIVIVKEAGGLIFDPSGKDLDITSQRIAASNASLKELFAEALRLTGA
# T3: GDP-L-galactose phosphorylase (VTC2), yeast two-hybrid fusions (Arabidopsis thaliana) (UniProt Q8RWE8)
# T3 sequence: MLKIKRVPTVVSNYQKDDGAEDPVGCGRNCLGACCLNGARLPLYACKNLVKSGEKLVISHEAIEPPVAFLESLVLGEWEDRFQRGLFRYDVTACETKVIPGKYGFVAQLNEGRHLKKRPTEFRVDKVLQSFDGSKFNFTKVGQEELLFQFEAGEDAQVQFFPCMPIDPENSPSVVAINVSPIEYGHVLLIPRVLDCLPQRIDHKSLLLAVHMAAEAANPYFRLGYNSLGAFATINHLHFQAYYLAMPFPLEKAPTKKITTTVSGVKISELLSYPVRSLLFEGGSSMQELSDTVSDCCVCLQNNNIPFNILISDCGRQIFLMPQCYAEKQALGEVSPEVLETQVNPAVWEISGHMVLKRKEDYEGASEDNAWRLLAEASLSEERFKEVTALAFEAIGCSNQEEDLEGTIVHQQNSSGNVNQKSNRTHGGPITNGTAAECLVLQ
# T4: L-galactono-1,4-lactone dehydrogenase (L-GalLDH), yeast two-hybrid fusions (Arabidopsis thaliana) (UniProt Q9SU56)
# T4 sequence: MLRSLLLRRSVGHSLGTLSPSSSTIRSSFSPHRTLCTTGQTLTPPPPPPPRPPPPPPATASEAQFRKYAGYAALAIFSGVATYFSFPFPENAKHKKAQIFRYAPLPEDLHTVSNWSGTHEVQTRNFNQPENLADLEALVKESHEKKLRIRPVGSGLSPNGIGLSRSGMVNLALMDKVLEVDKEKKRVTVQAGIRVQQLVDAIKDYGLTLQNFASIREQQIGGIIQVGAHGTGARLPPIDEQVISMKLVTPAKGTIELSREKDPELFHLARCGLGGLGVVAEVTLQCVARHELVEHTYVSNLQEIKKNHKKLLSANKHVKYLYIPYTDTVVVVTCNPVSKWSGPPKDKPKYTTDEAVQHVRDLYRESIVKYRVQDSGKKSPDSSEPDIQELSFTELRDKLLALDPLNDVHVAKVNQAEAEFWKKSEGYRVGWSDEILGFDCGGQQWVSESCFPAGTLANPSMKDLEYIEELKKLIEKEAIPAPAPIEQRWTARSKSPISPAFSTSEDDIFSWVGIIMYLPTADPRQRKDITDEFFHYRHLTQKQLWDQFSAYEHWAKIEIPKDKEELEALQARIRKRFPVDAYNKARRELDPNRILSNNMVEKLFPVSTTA
# T5: GDP-D-mannose epimerase (GME), yeast two-hybrid fusions (Arabidopsis thaliana) (UniProt Q93VR3)
# T5 sequence: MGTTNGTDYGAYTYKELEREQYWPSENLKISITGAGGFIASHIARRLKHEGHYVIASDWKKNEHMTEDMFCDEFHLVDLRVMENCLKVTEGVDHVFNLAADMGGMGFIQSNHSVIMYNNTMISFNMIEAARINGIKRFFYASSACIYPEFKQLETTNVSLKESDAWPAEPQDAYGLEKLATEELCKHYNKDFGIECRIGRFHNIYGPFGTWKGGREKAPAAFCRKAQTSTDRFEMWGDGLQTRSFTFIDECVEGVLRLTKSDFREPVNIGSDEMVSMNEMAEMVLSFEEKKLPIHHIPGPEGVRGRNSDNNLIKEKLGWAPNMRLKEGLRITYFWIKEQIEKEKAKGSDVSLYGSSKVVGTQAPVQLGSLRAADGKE
# Columns and labels:
# [1] = target: T1, L-galactose dehydrogenase (L-GalDH), yeast two-hybrid fusions (Arabidopsis thaliana); assay: two-hybrid
# [2] = target: T2, L-galactose 1-phosphate phosphatase (VTC4), yeast two-hybrid fusions (Arabidopsis thaliana); assay: two-hybrid
# [3] = target: T3, GDP-L-galactose phosphorylase (VTC2), yeast two-hybrid fusions (Arabidopsis thaliana); assay: two-hybrid
# [4] = target: T4, L-galactono-1,4-lactone dehydrogenase (L-GalLDH), yeast two-hybrid fusions (Arabidopsis thaliana); assay: two-hybrid
# [5] = target: T5, GDP-D-mannose epimerase (GME), yeast two-hybrid fusions (Arabidopsis thaliana); assay: two-hybrid
# [6] = target: VTC1-GFP (Arabidopsis thaliana); assay: co-IP
Molecule,binding [1],binding [2],binding [3],binding [4],binding [5],binding [6]
"GDP-D-mannose pyrophosphorylase (VTC1), yeast two-hybrid fusions (Arabidopsis thaliana) (enzyme)",no binding,no binding,no binding,no binding,no binding,–
"GME-HA (enzyme, UniProt Q93VR3 1-377) MGTTNGTDYGAYTYKELEREQYWPSENLKISITGAGGFIASHIARRLKHEGHYVIASDWKKNEHMTEDMFCDEFHLVDLRVMENCLKVTEGVDHVFNLAADMGGMGFIQSNHSVIMYNNTMISFNMIEAARINGIKRFFYASSACIYPEFKQLETTNVSLKESDAWPAEPQDAYGLEKLATEELCKHYNKDFGIECRIGRFHNIYGPFGTWKGGREKAPAAFCRKAQTSTDRFEMWGDGLQTRSFTFIDECVEGVLRLTKSDFREPVNIGSDEMVSMNEMAEMVLSFEEKKLPIHHIPGPEGVRGRNSDNNLIKEKLGWAPNMRLKEGLRITYFWIKEQIEKEKAKGSDVSLYGSSKVVGTQAPVQLGSLRAADGKE",–,–,–,–,–,binds
"L-GalDH-HA (enzyme, UniProt O81884 1-319) MTKIELRALGNTGLKVSAVGFGASPLGSVFGPVAEDDAVATVREAFRLGINFFDTSPYYGGTLSEKMLGKGLKALQVPRSDYIVATKCGRYKEGFDFSAERVRKSIDESLERLQLDYVDILHCHDIEFGSLDQIVSETIPALQKLKQEGKTRFIGITGLPLDIFTYVLDRVPPGTVDVILSYCHYGVNDSTLLDLLPYLKSKGVGVISASPLAMGLLTEQGPPEWHPASPELKSASKAAVAHCKSKGKKITKLALQYSLANKEISSVLVGMSSVSQVEENVAAVTELESLGMDQETLSEVEAILEPVKNLTWPSGIHQN",–,–,–,–,–,binds
